Results are given in words; binding and its absence hold for the method and conditions named. Some entries that bind do so weakly or less than the wild type.
Target: T1, mouse TMEM16A (ac splice variant), wild type (mouse), Q8BHY3
T1 chain: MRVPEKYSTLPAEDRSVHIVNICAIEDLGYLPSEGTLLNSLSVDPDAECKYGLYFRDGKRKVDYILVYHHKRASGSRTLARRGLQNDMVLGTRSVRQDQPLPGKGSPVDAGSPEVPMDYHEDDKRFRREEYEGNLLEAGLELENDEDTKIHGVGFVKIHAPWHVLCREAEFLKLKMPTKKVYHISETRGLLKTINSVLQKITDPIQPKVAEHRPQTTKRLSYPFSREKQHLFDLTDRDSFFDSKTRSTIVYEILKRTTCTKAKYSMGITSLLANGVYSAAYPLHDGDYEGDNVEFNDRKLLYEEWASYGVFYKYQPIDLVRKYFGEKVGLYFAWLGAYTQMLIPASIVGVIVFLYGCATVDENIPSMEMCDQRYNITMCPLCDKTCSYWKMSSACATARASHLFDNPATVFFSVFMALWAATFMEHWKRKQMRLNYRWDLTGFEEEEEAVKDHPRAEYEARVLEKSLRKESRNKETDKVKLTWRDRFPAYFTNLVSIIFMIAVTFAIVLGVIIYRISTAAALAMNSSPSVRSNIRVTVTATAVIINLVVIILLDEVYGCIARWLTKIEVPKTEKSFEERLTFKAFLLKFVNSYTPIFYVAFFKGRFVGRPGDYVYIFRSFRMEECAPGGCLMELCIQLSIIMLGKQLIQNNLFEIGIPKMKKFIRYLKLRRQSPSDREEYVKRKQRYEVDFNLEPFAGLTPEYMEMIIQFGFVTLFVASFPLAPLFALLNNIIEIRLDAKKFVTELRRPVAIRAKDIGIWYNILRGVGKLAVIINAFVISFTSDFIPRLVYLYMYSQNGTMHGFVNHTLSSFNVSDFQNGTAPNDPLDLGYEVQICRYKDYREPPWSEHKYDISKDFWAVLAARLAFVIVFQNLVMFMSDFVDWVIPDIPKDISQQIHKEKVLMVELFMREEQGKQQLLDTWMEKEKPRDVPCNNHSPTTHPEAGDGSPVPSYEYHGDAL
Test: cryo-EM structure; purified protein in GDN, pre-incubated with 100 µM 1PBC and 1 mM free Ca2+ at 4 °C; non-coated and graphene oxide-coated grids; C2 symmetry applied; 2.85 Å; both purified
Conditions: remark: other sources report otherwise

B1: mouse TMEM16A (ac splice variant), wild type, Q8BHY3 1-960 (protein)
chain: T1 chain
  binding: binds
